Test results published in article PMC7617797.
The exact form of at least one protein or probe is not confirmed. For some of these results: The comparison behind a weaker result is the experiment's own reference, which may not be listed here. For some of these results: At least one verdict rests on a figure or table, not on a statement of the authors.

By UniProt entry, the sequences of proteins in these tests, tags left out.
UniProt Q9BQ15, whole entry Y74A: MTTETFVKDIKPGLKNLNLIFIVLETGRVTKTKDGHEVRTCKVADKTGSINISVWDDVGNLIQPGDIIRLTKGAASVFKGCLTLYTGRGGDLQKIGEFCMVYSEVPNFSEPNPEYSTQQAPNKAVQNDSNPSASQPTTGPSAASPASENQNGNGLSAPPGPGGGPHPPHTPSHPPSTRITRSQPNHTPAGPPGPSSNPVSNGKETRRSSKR
UniProt Q9BQ15, whole entry Y85A: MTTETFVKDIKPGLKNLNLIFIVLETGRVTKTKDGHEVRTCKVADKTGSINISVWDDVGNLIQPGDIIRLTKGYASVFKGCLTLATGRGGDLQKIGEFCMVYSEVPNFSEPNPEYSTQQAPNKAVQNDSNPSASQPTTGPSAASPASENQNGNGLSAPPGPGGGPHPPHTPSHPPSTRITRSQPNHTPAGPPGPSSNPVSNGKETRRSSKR

Columns and labels:
RPA = test: EMSA; details: EMSA: 25 mM Tris-HCl pH 7.5, 1 mM DTT, 5 mM MgCl2, 100 mM NaCl, 20 min at 37 C; 10 nM substrate; protein 22-167 nM (RPA 5-40 nM); 7.5% native PAGE, 0.5x TBE, 4 C; recombinant protein; label: 5' Cy3 on strand 1
[1] = molecular target: hSSB1 Y74A (Homo sapiens) (UniProt Q9BQ15); test: EMSA; details: EMSA: 25 mM Tris-HCl pH 7.5, 1 mM DTT, 5 mM MgCl2, 100 mM NaCl, 20 min at 37 C, 10 nM substrate, protein 22-167 nM (RPA 5-40 nM), 7.5% native PAGE, 0.5x TBE, 4 C, recombinant protein
hSSB1 (Homo sapiens) = hSSB1 (Homo sapiens) (UniProt Q9BQ15); test: competition EMSA; details: substrate pre-coated with RPA (10 or 30 nM); EMSA: 25 mM Tris-HCl pH 7.5, 1 mM DTT, 5 mM MgCl2, 100 mM NaCl, 20 min at 37 C; 10 nM substrate; protein 22-167 nM (RPA 5-40 nM); 7.5% native PAGE, 0.5x TBE, 4 C; recombinant protein; protein details: His6 (2BT); label: 5' Cy3 on strand 1
hSSB1 + INTS3 + c9orf80 [2] = test: EMSA; details: EMSA: 25 mM Tris-HCl pH 7.5, 1 mM DTT, 5 mM MgCl2, 100 mM NaCl, 20 min at 37 C; 10 nM substrate; protein 22-167 nM (RPA 5-40 nM); 7.5% native PAGE, 0.5x TBE, 4 C; recombinant protein; protein details: His6 (2BT),His6-TEV (438B),His6-TEV (438B); label: 5' Cy3; single-stranded DNA
[3] = molecular target: hSSB1 Y85A (Homo sapiens) (UniProt Q9BQ15); test: EMSA; details: EMSA: 25 mM Tris-HCl pH 7.5, 1 mM DTT, 5 mM MgCl2, 100 mM NaCl, 20 min at 37 C; 10 nM substrate; protein 22-167 nM (RPA 5-40 nM); 7.5% native PAGE, 0.5x TBE, 4 C; recombinant protein; label: 5' Cy3; single-stranded DNA
hSSB1 + INTS3 + c9orf80 [4] = test: competition EMSA; details: substrate pre-coated with RPA (10 or 30 nM); EMSA: 25 mM Tris-HCl pH 7.5, 1 mM DTT, 5 mM MgCl2, 100 mM NaCl, 20 min at 37 C; 10 nM substrate; protein 22-167 nM (RPA 5-40 nM); 7.5% native PAGE, 0.5x TBE, 4 C; recombinant protein; protein details: His6 (2BT),His6-TEV (438B),His6-TEV (438B); label: 5' Cy3; single-stranded DNA

Sequence: GACGCTGCCGAATTCTACCAGTGCCTTGCTAGGACATCTTTGCCCACCTGCAGGTTCACCC / GGGTGAACCTGCAGGTGGGCGGCTGCTCATCGTAGGTTAGTTGGTAGAATTCGGCAGCGTC / AAAGAUGUCCUAGCAAGGCAC [R-loop]
- binding result (RPA): binds
- binding result ([1]; label: 5' Cy3 on strand 1): binds more weakly
- binding result (hSSB1 (Homo sapiens)): binds more weakly

Sequence: GACGCTGCCGAATTCTACCAGTGCCTTGCTAGGACATCTTTGCCCACCTGCAGGTTCACCC [61-mer ssDNA]
- binding result (hSSB1 + INTS3 + c9orf80 [2]): binds
- binding result [3]: binds more weakly
- binding result ([1]; label: 5' Cy3, single-stranded DNA): binds more weakly
- binding result (hSSB1 + INTS3 + c9orf80 [4]): binds more weakly
